PubChem BioAssay AID1224830 | NIAID – 2016

Test: 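Regulators of TLR4 signalling towards TNF-alpha in macrophage-like cells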 (primary screen)
System: human THP-1 monocytic leukaemia cells, TNF dual-luciferase reporter clone, PMA-differentiated to macrophage-like cells
Reagents: siRNA pool against human genes, 50 nM
Duration: LPS for 4 h, given about 3 days after siRNA transfection
Conditions: bacterial LPS (TLR4 ligand), 10 ng/ml
Measurement: 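Ratio of firefly to renilla light, scaled to the plate median and expressed as a robust z-score per replicate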
Reading the numbers: TNF reporter robust z-score: higher = stronger TNF reporter response to LPS
Call rule: 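a well is active when its z-score exceeds 2.8 or falls below -1.5; control wells carry no call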
Here is one part, drawn at random, of about 18,000 reagents. Of all reagents, about 2,900 (16%) are marked active. 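Calls are made per well; low scores hint the gene aids the LPS response, high scores that it dampens it.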 A number with no mark means an inactive call. Repeated entries: four replicate wells of each siRNA pool.

Gene | TNF reporter robust z-score
HDLBP (high density lipoprotein binding protein) | 1.09
HDLBP (high density lipoprotein binding protein) | 2.8 (active)
HDLBP (high density lipoprotein binding protein) | 0.39
HDLBP (high density lipoprotein binding protein) | -0.16
DNAH8 (dynein axonemal heavy chain 8) | -0.79
DNAH8 (dynein axonemal heavy chain 8) | -0.39
DNAH8 (dynein axonemal heavy chain 8) | -0.26
DNAH8 (dynein axonemal heavy chain 8) | 0.19
WFDC8 (WAP four-disulfide core domain 8) | 0.95
WFDC8 (WAP four-disulfide core domain 8) | 0.33
WFDC8 (WAP four-disulfide core domain 8) | -0.62
WFDC8 (WAP four-disulfide core domain 8) | 0.03
H1-3 (H1.3 linker histone, cluster member) | -0.86
H1-3 (H1.3 linker histone, cluster member) | -1.21
H1-3 (H1.3 linker histone, cluster member) | -1.39
H1-3 (H1.3 linker histone, cluster member) | -1.31
LGALS14 (galectin 14) | -1.73 (active)
LGALS14 (galectin 14) | -0.6
LGALS14 (galectin 14) | -1.64 (active)
LGALS14 (galectin 14) | -0.79
ZNF653 (zinc finger protein 653) | -0.16
ZNF653 (zinc finger protein 653) | -0.59
ZNF653 (zinc finger protein 653) | -1.33
ZNF653 (zinc finger protein 653) | -0.11
RABL3 (RAB, member of RAS oncogene family like 3) | -0.87
RABL3 (RAB, member of RAS oncogene family like 3) | -0.85
RABL3 (RAB, member of RAS oncogene family like 3) | -0.77
RABL3 (RAB, member of RAS oncogene family like 3) | -0.65
SCRG1 (stimulator of chondrogenesis 1) | -2.09 (active)
SCRG1 (stimulator of chondrogenesis 1) | -1.98 (active)
SCRG1 (stimulator of chondrogenesis 1) | -2.12 (active)
SCRG1 (stimulator of chondrogenesis 1) | -1.55 (active)
METRN (meteorin, glial cell differentiation regulator) | -0.24
METRN (meteorin, glial cell differentiation regulator) | 1.27
METRN (meteorin, glial cell differentiation regulator) | 0.57
METRN (meteorin, glial cell differentiation regulator) | 0.14
POU5F2 (POU domain class 5, transcription factor 2) | -1.12
POU5F2 (POU domain class 5, transcription factor 2) | 0.41
POU5F2 (POU domain class 5, transcription factor 2) | -0.2
POU5F2 (POU domain class 5, transcription factor 2) | 0.05
EEF1E1 (eukaryotic translation elongation factor 1 epsilon 1) | -1.32
EEF1E1 (eukaryotic translation elongation factor 1 epsilon 1) | -0.84
EEF1E1 (eukaryotic translation elongation factor 1 epsilon 1) | -0.98
EEF1E1 (eukaryotic translation elongation factor 1 epsilon 1) | -0.69
ZNF547 (zinc finger protein 547) | -0.19
ZNF547 (zinc finger protein 547) | 1.14
ZNF547 (zinc finger protein 547) | -0.63
ZNF547 (zinc finger protein 547) | 1.53
ARL4D (ARF like GTPase 4D) | -0.81
ARL4D (ARF like GTPase 4D) | -0.36
ARL4D (ARF like GTPase 4D) | -0.12
ARL4D (ARF like GTPase 4D) | 0.08
MCMBP (minichromosome maintenance complex binding protein) | 0.48
MCMBP (minichromosome maintenance complex binding protein) | 0.15
MCMBP (minichromosome maintenance complex binding protein) | 1.25
MCMBP (minichromosome maintenance complex binding protein) | 0.21
F10 (coagulation factor X) | -0.38
F10 (coagulation factor X) | -0.37
F10 (coagulation factor X) | 0.59
F10 (coagulation factor X) | -0.65
TBPL1 (TATA-box binding protein like 1) | -0.6
TBPL1 (TATA-box binding protein like 1) | -1.25
TBPL1 (TATA-box binding protein like 1) | -0.72
TBPL1 (TATA-box binding protein like 1) | -0.59
TMEM109 (transmembrane protein 109) | -1.1
TMEM109 (transmembrane protein 109) | 0.59
TMEM109 (transmembrane protein 109) | -0.89
TMEM109 (transmembrane protein 109) | 0.04
NIBAN1 (niban apoptosis regulator 1) | -1.75 (active)
NIBAN1 (niban apoptosis regulator 1) | -1.3
NIBAN1 (niban apoptosis regulator 1) | -1.06
NIBAN1 (niban apoptosis regulator 1) | -1.42
QRFPR (pyroglutamylated RFamide peptide receptor) | -0.7
QRFPR (pyroglutamylated RFamide peptide receptor) | 0.97
QRFPR (pyroglutamylated RFamide peptide receptor) | -0.34
QRFPR (pyroglutamylated RFamide peptide receptor) | -0.19
H2BC13 (H2B clustered histone 13) | 1.3
H2BC13 (H2B clustered histone 13) | 1.62
H2BC13 (H2B clustered histone 13) | 1.23
H2BC13 (H2B clustered histone 13) | 1.57
ARHGEF28 (Rho guanine nucleotide exchange factor 28) | -1.24
ARHGEF28 (Rho guanine nucleotide exchange factor 28) | -0.76
ARHGEF28 (Rho guanine nucleotide exchange factor 28) | -0.92
ARHGEF28 (Rho guanine nucleotide exchange factor 28) | 0.67
OR4Q3 (olfactory receptor family 4 subfamily Q member 3) | -0.66
OR4Q3 (olfactory receptor family 4 subfamily Q member 3) | 0.87
OR4Q3 (olfactory receptor family 4 subfamily Q member 3) | 1.12
OR4Q3 (olfactory receptor family 4 subfamily Q member 3) | 1.55
RHBDD3 (rhomboid domain containing 3) | 0.28
RHBDD3 (rhomboid domain containing 3) | 0.09
RHBDD3 (rhomboid domain containing 3) | 0.52
RHBDD3 (rhomboid domain containing 3) | -0.2
TAF1D | -0.61
TAF1D | -0.42
TAF1D | 0.06
TAF1D | -0.11
TRAF3IP2 (TRAF3 interacting protein 2) | 0.16
TRAF3IP2 (TRAF3 interacting protein 2) | 2.02
TRAF3IP2 (TRAF3 interacting protein 2) | 1.32
TRAF3IP2 (TRAF3 interacting protein 2) | 1.81
OR7C2 (olfactory receptor family 7 subfamily C member 2) | 0.24
OR7C2 (olfactory receptor family 7 subfamily C member 2) | 0.87
OR7C2 (olfactory receptor family 7 subfamily C member 2) | 0.69
OR7C2 (olfactory receptor family 7 subfamily C member 2) | -0.89
BACH1 (BTB domain and CNC homolog 1) | 0.31
BACH1 (BTB domain and CNC homolog 1) | 0.53
BACH1 (BTB domain and CNC homolog 1) | 1.03
BACH1 (BTB domain and CNC homolog 1) | 0.95
RAB27B (RAB27B, member RAS oncogene family) | -0.44
RAB27B (RAB27B, member RAS oncogene family) | 1.07
RAB27B (RAB27B, member RAS oncogene family) | -0.08
RAB27B (RAB27B, member RAS oncogene family) | 0.45
